From patent publication EP1406920B1, “NOVEL CHROMOGENIC SUBSTANCES AND USE THEREOF FOR THE DETERMINATION OF CARBOXYPEPTIDASE ACTIVITIES” (Diagnostica Stago, priority 2001, dated 2003)

Tested on: carboxypeptidase B pancréatique porcine
Assay: Decoloration of single-amino-acid substrate AAFR by pancreatic carboxypeptidase B
Format: biochemical
Conditions: CPB porcine 5,2 mol/l in hépès buffer; AAFR 5 mM (0,25 mM); 382 nm
Source text: L'exemple ci-après vise à démontrer la nécessité d'utiliser la méthode et les composés de formule (I) de l'invention pour doser spécifiquement l'activité des CPN ou U, en particulier le TAFI, par rapport à d'autres carboxypeptidases basiques. 1. Le dosage est dans ce cas réalisé avec un substrat de la famille de composés décrites par Mock dans (14). Ce substrat est constitué d'un seul acide aminé porteur du radical chromophore anizylazoformyl (portion CH3OC6H4-N = N-CO-). L'acide aminé choisi est l'arginine, un acide aminé basique normalement hydrolysé par les carboxypeptidases B (1). Ce substrat est dénommé ci-après AAFR (AnizylAzoFormyArginine) ou MxAFR (4-MethoxyphenylAzoformylarginine). Ce substrat (0,25 mM) est mis en présence soit d'un échantillon de TAFI plasmatique, soit d'une solution de carboxypeptidase B pancréatique porcine (Sigma - Réf. C9584) à 5,2 mol/l. La diminution de coloration de chacun des deux échantillons est suivie au spectrophotomètre. Chacun des échantillons est traité selon le protocole suivant : • a) échantillon de départ : • TAFI plasmatique (présent dans un pool normal de plasmas - dilué au 1/20) ou • Carboxypeptidase B pancréatique porcine 5,2 mol/l (dans tampon hépès) • b) activation avec complexe thrombine-thrombomoduline-CaCl2 (voir exemple 2) pour l'échantillon de TAFI plasmatique. • c) addition de AAFR à 5 mM. • d) lecture DO à 382 nm.

For COc1ccc(N=NC(=O)N[C@@H](CCCNC(=N)N)C(=O)O)cc1 [AAFR, 4-MethoxyphenylAzoformylarginine], the “DO de départ” value was 1.054 and the DO finale was 0.445.
